For data set [1], the target named is T1, AtLFYRE R112E (Arabidopsis thaliana) (UniProt Q00958).
T1 sequence (looked up): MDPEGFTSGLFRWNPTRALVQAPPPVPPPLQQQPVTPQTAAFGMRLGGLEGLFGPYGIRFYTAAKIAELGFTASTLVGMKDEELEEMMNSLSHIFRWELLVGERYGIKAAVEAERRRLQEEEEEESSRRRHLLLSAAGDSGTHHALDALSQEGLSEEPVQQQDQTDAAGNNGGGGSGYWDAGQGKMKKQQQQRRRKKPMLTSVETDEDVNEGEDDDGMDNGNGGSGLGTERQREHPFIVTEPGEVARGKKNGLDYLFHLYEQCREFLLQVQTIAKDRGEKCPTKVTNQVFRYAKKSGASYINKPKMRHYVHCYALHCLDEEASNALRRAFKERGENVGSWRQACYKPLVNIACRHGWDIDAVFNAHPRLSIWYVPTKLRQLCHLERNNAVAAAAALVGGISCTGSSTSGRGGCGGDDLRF
Briefly: EMSA. Particulars: 500 nM; EMSA: 20 mM Tris-HCl pH 7.5, 150 mM NaCl, 1% glycerol, 0.25 mM EDTA, 2 mM MgCl2, 0.01% Tween-20, 3 mM TCEP, 28 ng/ml fish sperm DNA, 10 nM probe, 25-500 nM protein; recombinant protein; residues 1-420; protein details: C-terminal 6xHis; label: Cy3 or Cy5-dCTP by end filling. (Mobility shift assays separate free from complexed probe on a gel.)

The target in data set [2] is T2, AtLFYTE T75E (Arabidopsis thaliana) (UniProt Q00958).
T2 sequence (looked up): T1 sequence (looked up) with T75E, E112R
Put plainly: EMSA. Particulars: 500 nM; EMSA: 20 mM Tris-HCl pH 7.5, 150 mM NaCl, 1% glycerol, 0.25 mM EDTA, 2 mM MgCl2, 0.01% Tween-20, 3 mM TCEP, 28 ng/ml fish sperm DNA, 10 nM probe, 25-500 nM protein; recombinant protein; residues 1-420; protein details: C-terminal 6xHis; label: Cy3 or Cy5-dCTP by end filling.

Data set [3] addresses T3, AtLFYTERE T75E,R112E (Arabidopsis thaliana) (UniProt Q00958).
T3 sequence (looked up): T1 sequence (looked up) with T75E
Put plainly: EMSA. Particulars: 500 nM; EMSA: 20 mM Tris-HCl pH 7.5, 150 mM NaCl, 1% glycerol, 0.25 mM EDTA, 2 mM MgCl2, 0.01% Tween-20, 3 mM TCEP, 28 ng/ml fish sperm DNA, 10 nM probe, 25-500 nM protein; recombinant protein; residues 1-420; protein details: C-terminal 6xHis; label: Cy3 or Cy5-dCTP by end filling.

Data set [4] concerns GbLFYΔ (WT) (Ginkgo biloba). Put plainly: EMSA. Particulars: EMSA: 20 mM Tris-HCl pH 7.5, 150 mM NaCl, 1% glycerol, 0.25 mM EDTA, 2 mM MgCl2, 0.01% Tween-20, 3 mM TCEP, 28 ng/ml fish sperm DNA, 10 nM probe, 25-500 nM protein, recombinant protein, protein details: N-terminal 6xHis (pETM-11), label: Cy3 or Cy5-dCTP by end filling.
Another data set relates to GbLFYΔRE (Ginkgo biloba). Briefly: EMSA. Particulars: EMSA: 20 mM Tris-HCl pH 7.5, 150 mM NaCl, 1% glycerol, 0.25 mM EDTA, 2 mM MgCl2, 0.01% Tween-20, 3 mM TCEP, 28 ng/ml fish sperm DNA, 10 nM probe, 25-500 nM protein, recombinant protein, protein details: N-terminal 6xHis, label: Cy3 or Cy5-dCTP by end filling.
Data set [5] concerns GbLFYΔTE (Ginkgo biloba). Put plainly: EMSA. The conditions noted are these: EMSA: 20 mM Tris-HCl pH 7.5, 150 mM NaCl, 1% glycerol, 0.25 mM EDTA, 2 mM MgCl2, 0.01% Tween-20, 3 mM TCEP, 28 ng/ml fish sperm DNA, 10 nM probe, 25-500 nM protein, recombinant protein, protein details: N-terminal 6xHis, label: Cy3 or Cy5-dCTP by end filling.
Data set [6] deals with GbLFYΔTERE (Ginkgo biloba). Put plainly: EMSA. The conditions noted are these: EMSA: 20 mM Tris-HCl pH 7.5, 150 mM NaCl, 1% glycerol, 0.25 mM EDTA, 2 mM MgCl2, 0.01% Tween-20, 3 mM TCEP, 28 ng/ml fish sperm DNA, 10 nM probe, 25-500 nM protein, recombinant protein, protein details: N-terminal 6xHis, label: Cy3 or Cy5-dCTP by end filling.
Data set [7] relates to GbLFYΔ (WT) (Ginkgo biloba). Briefly: SEC-MALLS. The conditions noted are these: 60 uM protein, 15 uM DNA, dimer on DNA; recombinant protein; protein details: N-terminal 6xHis (pETM-11); label: Cy3 or Cy5-dCTP by end filling.
Data set [8] deals with GbLFYΔTE (Ginkgo biloba). Put plainly: SEC-MALLS. Particulars: 60 uM protein, 15 uM DNA, dimer on DNA; recombinant protein; protein details: N-terminal 6xHis; label: Cy3 or Cy5-dCTP by end filling.
The mark [9] stands for this setting: 500 nM, dimer plus weak monomer, dissociates at lower fish DNA than WT.
The mark [10] stands for this setting: very little binding, up to 500 nM.
Setting [11] is: impaired tetramer formation at low concentration.

Changes are numbered by the printed parent chain. The exact form of at least one protein or probe is not confirmed. For some of these results: A negative result means that nothing was seen under these conditions. For some of these results: The comparison behind a weaker result is the experiment's own reference, which may not be listed here. For some of these results: At least one verdict was read from the data and is not stated in words by the source. For some of these results: Protein sequences can lack the tags named with them.

Regarding “GTTGGGGAAGGACCAGTGGTCCGTACAATGT (double strand) [AP1]”, the binding result was “binds” in data set [1]; “binds” in [2]; “binds” in data set [3]; “binds” in [4] (50-500 nM, dimer); “binds” in the data set on GbLFYΔRE (Ginkgo biloba) (setting [9]); “binds” in the data set with GbLFYΔTE (Ginkgo biloba) [5] (setting [9]). The binding result in data set [6] (same apparent affinity as WT, mostly dimer, weak monomer complex) was “binds”; in data set [7] it was “binds”; in the data set with GbLFYΔTE (Ginkgo biloba) [8], “binds”.

In the case of “GTTGGGGAAGGACCAGTAATCCGTACAATGT (double strand) [AP1m2]”, the binding result is recorded as “binds more weakly” in data set [4] (setting [10]) and “binds” in [6] (binds as monomer).

With “CGTTTAAATTTAATCCAATGGTTACAATTTTAATACTATCAAATGTCTATTGGATTTATACCCAATGTGTTAATGGGTTG (double strand) [AGI-II]”, the binding result in data set [4] (25-250 nM, mainly tetramer (two dimers)) is listed as “binds”; in the data set with GbLFYΔRE (Ginkgo biloba) (setting [11]), “binds more weakly”; in the data set on GbLFYΔTE (Ginkgo biloba) [5] (setting [11]) it was “binds more weakly”; in [6] (setting [11]), “binds more weakly”.

Take “GTTGGGGAAGGAAAAGTAATCCGTACAATGT (double strand) [AP1m]”: the binding result in [4] (up to 500 nM) is given as “no binding”; in data set [6] (weak monomeric complex) it was “binds more weakly”.

Regarding “GTTGGGGAAGGAAAAGTGGTCCGTACAATGT (double strand) [AP1m1]”, the binding result was “binds more weakly” in data set [4] (setting [10]) and “binds” in data set [6] (binds as monomer).
